Test results as given in the supplement of paper PMC8728848.
Some of the results follow.

Experiments:
Test in all cases: glycan array binding signal (z-score within array); higher = stronger binding
Details in all cases: glycan notation: IUPAC condensed, linker removed
[1] = molecular target: Neu5Ac(a2-3)Gal(b1-3)GlcNAc6S
Outline: (§1)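 Columns mapping to the same glycan were averaged after glycan names were converted to IUPAC-condensed notation. The data come from 3228 arrays in the Consortium for Functional Glycomics database, limited to those with an available protein sequence. Binding is reported as a within-array Z-score averaged across arrays of one protein sequence and across linkers.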

[2] = molecular target: Neu5Ac(a2-3)Gal(b1-3)[Fuc(a1-4)]GlcNAc
Outline: as §1

[3] = molecular target: Neu5Ac(a2-3)Gal(b1-3)[Fuc(a1-4)]GlcNAc(b1-3)Gal(b1-3)[Fuc(a1-4)]GlcNAc
Outline: as §1

[4] = molecular target: Neu5Ac(a2-3)Gal(b1-3)[Fuc(a1-4)]GlcNAc(b1-3)Gal(b1-4)[Fuc(a1-3)]GlcNAc
Outline: as §1

[5] = molecular target: Neu5Ac(a2-3)Gal(b1-3)[GlcNAc(b1-6)]GalNAc
Outline: as §1

[6] = molecular target: Neu5Ac(a2-3)Gal(b1-3)[Neu5Ac(a2-6)]GalNAc
Outline: as §1

[7] = molecular target: Neu5Ac(a2-3)Gal(b1-3)[Neu5Ac(a2-6)]GlcNAc(b1-3)[Fuc(a1-3)[Gal(b1-4)]GlcNAc(b1-6)]Gal(b1-4)Glc
Outline: as §1

[8] = molecular target: Neu5Ac(a2-3)Gal(b1-3)]Neu5Ac(a2-3)Gal(b1-4)]GlcNAc
Outline: as §1

Neu5Ac(a2-3)Gal(b1-4)Glc = molecular target: Neu5Ac(a2-3)Gal(b1-4)Glc
Outline: as §1

[9] = molecular target: Neu5Ac(a2-3)Gal(b1-4)GlcNAc
Outline: as §1

[10] = molecular target: Neu5Ac(a2-3)Gal(b1-4)GlcNAc(b1-2)Man
Outline: as §1

[11] = molecular target: Neu5Ac(a2-3)Gal(b1-4)GlcNAc(b1-2)Man(a1-3)[GlcNAc(b1-4)][Neu5Ac(a2-3)Gal(b1-4)GlcNAc(b1-2)Man(a1-6)]Man(b1-4)GlcNAc(b1-4)GlcNAc
Outline: as §1

[12] = molecular target: Neu5Ac(a2-3)Gal(b1-4)GlcNAc(b1-2)Man(a1-3)[Neu5Ac(a2-3)Gal(b1-4)GlcNAc(b1-2)Man(a1-6)]Man(b1-4)GlcNAc(b1-4)GlcNAc
Outline: as §1

[13] = molecular target: Neu5Ac(a2-3)Gal(b1-4)GlcNAc(b1-2)Man(a1-3)[Neu5Ac(a2-3)Gal(b1-4)GlcNAc(b1-2)Man(a1-6)]Man(b1-4)GlcNAc(b1-4)[Fuc(a1-6)]GlcNAc
Outline: as §1

[14] = molecular target: Neu5Ac(a2-3)Gal(b1-4)GlcNAc(b1-2)Man(a1-3)[Neu5Ac(a2-6)Gal(b1-4)GlcNAc(b1-2)Man(a1-6)]Man(b1-4)GlcNAc(b1-4)GlcNAc
Outline: as §1

[15] = molecular target: Neu5Ac(a2-3)Gal(b1-4)GlcNAc(b1-2)[Neu5Ac(a2-3)Gal(b1-4)GlcNAc(b1-4)]Man(a1-3)[GlcNAc(b1-4)][Neu5Ac(a2-3)Gal(b1-4)GlcNAc(b1-2)[Neu5Ac(a2-3)Gal(b1-4)GlcNAc(b1-6)]Man(a1-6)]Man(b1-4)GlcNAc(b1-4)GlcNAc
Outline: as §1

[16] = molecular target: Neu5Ac(a2-3)Gal(b1-4)GlcNAc(b1-2)[Neu5Ac(a2-3)Gal(b1-4)GlcNAc(b1-4)]Man(a1-3)[GlcNAc(b1-4)][Neu5Ac(a2-3)Gal(b1-4)GlcNAc(b1-4)Man(a1-6)]Man(b1-4)GlcNAc(b1-4)GlcNAc
Outline: as §1

[17] = molecular target: Neu5Ac(a2-3)Gal(b1-4)GlcNAc(b1-2)[Neu5Ac(a2-3)Gal(b1-4)GlcNAc(b1-6)]Man(a1-6)[Neu5Ac(a2-3)Gal(b1-4)GlcNAc(b1-2)Man(a1-3)][GlcNAc(b1-4)]Man(b1-4)GlcNAc(b1-4)GlcNAc
Outline: as §1

[18] = molecular target: Neu5Ac(a2-3)Gal(b1-4)GlcNAc(b1-3)Gal
Outline: as §1

[19] = molecular target: Neu5Ac(a2-3)Gal(b1-4)GlcNAc(b1-3)Gal(b1-3)GlcNAc
Outline: as §1

[20] = molecular target: Neu5Ac(a2-3)Gal(b1-4)GlcNAc(b1-3)Gal(b1-4)GlcNAc
Outline: as §1

[21] = molecular target: Neu5Ac(a2-3)Gal(b1-4)GlcNAc(b1-3)Gal(b1-4)GlcNAc(b1-2)Man(a1-3)[Neu5Ac(a2-3)Gal(b1-4)GlcNAc(b1-3)Gal(b1-4)GlcNAc(b1-2)Man(a1-6)]Man(b1-4)GlcNAc(b1-4)GlcNAc
Outline: as §1

[22] = molecular target: Neu5Ac(a2-3)Gal(b1-4)GlcNAc(b1-3)Gal(b1-4)GlcNAc(b1-3)Gal(b1-4)GlcNAc
Outline: as §1

[23] = molecular target: Neu5Ac(a2-3)Gal(b1-4)GlcNAc(b1-3)Gal(b1-4)GlcNAc(b1-3)Gal(b1-4)GlcNAc(b1-2)Man(a1-3)[Neu5Ac(a2-3)Gal(b1-4)GlcNAc(b1-3)Gal(b1-4)GlcNAc(b1-3)Gal(b1-4)GlcNAc(b1-2)Man(a1-6)]GalNAc
Outline: as §1

[24] = molecular target: Neu5Ac(a2-3)Gal(b1-4)GlcNAc(b1-3)Gal(b1-4)GlcNAc(b1-3)GalNAc
Outline: as §1

[25] = molecular target: Neu5Ac(a2-3)Gal(b1-4)GlcNAc(b1-3)Gal(b1-4)GlcNAc(b1-3)[Neu5Ac(a2-3)Gal(b1-4)GlcNAc(b1-3)Gal(b1-4)GlcNAc(b1-6)]GalNAc
Outline: as §1

[26] = molecular target: Neu5Ac(a2-3)Gal(b1-4)GlcNAc(b1-3)Gal(b1-4)GlcNAc(b1-6)[Gal(b1-3)]GalNAc
Outline: as §1

[27] = molecular target: Neu5Ac(a2-3)Gal(b1-4)GlcNAc(b1-3)Gal(b1-4)[Fuc(a1-3)]GlcNAc
Outline: as §1

[28] = molecular target: Neu5Ac(a2-3)Gal(b1-4)GlcNAc(b1-3)GalNAc
Outline: as §1

[29] = molecular target: Neu5Ac(a2-3)Gal(b1-4)GlcNAc(b1-3)[Neu5Ac(a2-3)Gal(b1-4)GlcNAc(b1-6)]GalNAc
Outline: as §1

B1: Awp1 (Candida glabrata) (protein)
chain: MSLITIFAFLIKATLVLSLDILTPTTLTGDQTFNEDVSVVSSLTLNDGSQYLFNNLLQIAPSSASVTANALAAVSVFTFSLPPSSSLSNSGTLIISNSNTGPSTEQHIVITPNVMANTGTITLSLAHTNTDSSSTLIIDPVTFYNTGTINYESIGSETNDPSLTGNILSIGSSGRTLQNLGTINLNAANSYYLLGTITENSGSINVQKGFLYVNALDFIGNTINLSTTTALAFISPVSQVVRVRGVFFGNIIASVGSSGTFSYNTQTGILTVTTNGVYSYDIGCGYNPALMSGQQETLSFQGNPYDTFLVLVNQPIPSDLTCAAVSSSITPSSSVEPSSSVVPSSSVEPSSSVEPSSSVEPSSSVEPSSSVEPSSSVEPSSSVEPSSSVEPSSSVEPSSSVEPSSSVEPSSSVEPSSSVEPSSSVEPSSSVEPSSSVEPSSSVEPSSSVEPSSSVEPSSLIVPSSSVEPSSSVLPSSSVVPSSSVEPSTPPIPSSSVEPSSSVVPSSPAVPSSSVEPSTPPIPSSSVVSASVFDTSSTLPSSPSVPPSSVSPSTISTPSSSAAPSSFCPTCVSSGTPPAPSSSAIVPTSSAGGGNGGDNREPGAAGQPGAAGQPGAAGQPGAAGQPGAAGQPGAAGQPGAAGQPGAAGQPGAAGQPGAAGQPGAGFGVGSEQPTPGAGAGSGSADGNQSGTGSGTGNGQQGSGQAGSGQAGSGQEGSGQAGSGQAGSGQAGSGQAGSGQAGLDNTASGQSEGGQASAMDGDQSGRDGQSNSGSLLQPNAQQGTGSGTGSDIGADQASGESPGQIGDAQPGSGTDQSSGRHSLAAEARTSQSHSLAADARTRSTTRQTSVIAPDTAPGTASGTAPGTAPGTAVVTTFHGCGTVNHKGMINILLALALLVLL
- glycan array binding signal (z-score) [1]: -1.55
- glycan array binding signal (z-score) [2]: 1.5
- glycan array binding signal (z-score) [3]: 1.6
- glycan array binding signal (z-score) [4]: 0.19
- glycan array binding signal (z-score) [5]: -3.04
- glycan array binding signal (z-score) [6]: 0.297
- glycan array binding signal (z-score) [7]: 2.06
- glycan array binding signal (z-score) [8]: 0.442
- glycan array binding signal (z-score) (Neu5Ac(a2-3)Gal(b1-4)Glc): 0.998
- glycan array binding signal (z-score) [9]: 0.13
- glycan array binding signal (z-score) [10]: -0.144
- glycan array binding signal (z-score) [11]: 0.483
- glycan array binding signal (z-score) [12]: -0.63
- glycan array binding signal (z-score) [13]: -0.775
- glycan array binding signal (z-score) [14]: 0.387
- glycan array binding signal (z-score) [15]: -1.79
- glycan array binding signal (z-score) [16]: -0.764
- glycan array binding signal (z-score) [17]: 0.49
- glycan array binding signal (z-score) [18]: 0.691
- glycan array binding signal (z-score) [19]: -0.576
- glycan array binding signal (z-score) [20]: 0.526
- glycan array binding signal (z-score) [21]: -1.91
- glycan array binding signal (z-score) [22]: -0.761
- glycan array binding signal (z-score) [23]: 1.61
- glycan array binding signal (z-score) [24]: 0.889
- glycan array binding signal (z-score) [25]: -0.297
- glycan array binding signal (z-score) [26]: -1.47
- glycan array binding signal (z-score) [27]: 1.81
- glycan array binding signal (z-score) [28]: 0.493
- glycan array binding signal (z-score) [29]: 0.697
